Laboratory results from PubChem BioAssay AID485298 (National Center for Advancing Translational Sciences (NCATS), 2010).
Hit rate of the full screen: of about 320,000 compounds, about 740 (0.23%) were called active. Inconclusive means that the source gave no clear call. Such entries were picked first, then a sample of the others. Calls follow the shape of the dose curve; as a rule, active = well fitted activation curve with a large enough effect; inconclusive = small, poorly fitted or top-dose-only effect; inactive = no such curve, though single readings can be large or run the other way. Potencies of inconclusive entries are doubtful fits and often do not repeat.

Experiment: qHTS Assay for Small Molecule Inhibitors of Mitochondrial Division or Activators of Mitochondrial Fusion; also: nearly all actives have a fitted effect of over 45% in size
Settings: S. cerevisiae fusion-defective mutant growth rescue, CellTiterGlo 48 h; series mostly up to 46.1 µM
Procedure, shortened: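 Read-out: ATP-based luminescence (CellTiterGlo, 10 min ambient) reporting growth of fusion-defective ts yeast after 48 hours at 37C on glycerol/ethanol YPEG medium in the presence of compound.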
Potency is read from the fitted curve at half-maximal effect.

SMILES	Potency
CCOc1ccccc1NC(=O)CN1CCC(NC(=O)c2ccccc2C)CC1	inactive
COC(=O)c1c(NC(=O)COC(=O)c2ccc(C)s2)sc2c1CCCCC2	inconclusive: 35.5 µM [activator, single point]
CC1(C)SC2c3ccccc3C(=O)N2[C@@H]1C(=O)NC1CCCC1 (some centres not stated)	inactive
CC(=O)c1ccc(N2CCN(S(=O)(=O)c3cc4[nH]c(=O)c(=O)[nH]c4cc3C)CC2)cc1	inactive
COc1ccc(NC(=O)CC2(CC(=O)O)CCCC2)cn1	inactive
COC(=O)CCc1c(C)c(C(=O)c2cc(F)c(F)c(F)c2F)c2ccccn12	inconclusive: 35.5 µM [activator, single point]
C/C=C/c1c(F)c(F)c(Oc2ccc(C(=O)O)cc2)c(F)c1F	inconclusive: 14.1 µM [activator, partial curve]
CC/C(Cc1ccccc1)=N\NC(=O)c1cc([N+](=O)[O-])cc([N+](=O)[O-])c1	inactive
COc1ccc(OC)c(Nc2ncnc3c2cnn3-c2cccc(C)c2)c1	active: 15.8 µM
CC(OC(=O)Cc1c[nH]c2ccccc12)C(=O)Nc1ccccc1[N+](=O)[O-] (configuration not stated)	inconclusive: 14.1 µM [activator, single point]
CCCc1nc2c(c(=O)c3ccccc3n2C)c(=O)n1C1CCCCCC1	inconclusive: 17.8 µM [activator, partial curve]
Cc1nc2c(-c3ccccc3)c(C)nn2c(N)c1-c1ccccc1	inconclusive: 15.8 µM [activator, partial curve]
Cc1nc(N2CCCCC2)c2c(C)c(C(=O)Nc3ccc4c(c3)OCCO4)sc2n1	inconclusive: 22.4 µM [activator, single point]
CCOC(=O)c1ccc2nc(Nc3nc4ccc(F)cc4s3)sc2c1	inactive
CCCc1cc(=O)[nH]c(SCc2csc(-c3ccccc3)n2)n1	inconclusive: 20 µM [activator, partial curve]
Cc1ccc(C2=NN(S(=O)(=O)c3ccccc3)C(c3ccco3)C2)cc1 (configuration not stated)	inconclusive: 10 µM [activator, partial curve]
Cc1ccc(S(=O)(=O)NCC(=O)N/N=C/c2ccc(Cl)cc2Cl)cc1	inactive
COc1ccc2nc(N3CCCCC3)c(/C=C3\SC(=S)NC3=O)cc2c1	inactive
Nc1nc2nc(-c3ccc(OCc4ccccc4)cc3)cc(C(F)(F)F)n2n1	inactive
COc1ccccc1C1(CCNS(=O)(=O)c2ccc(C)cc2)CCOC(C(C)C)C1 (configuration not stated)	inconclusive: 31.6 µM [activator, single point]
N#CCC(=O)N/N=C/c1ccc(OCC(=O)Nc2ccc(F)cc2)cc1	inconclusive: 25.1 µM [activator, partial curve]
Cc1onc(-c2ccccc2)c1C(=O)Nc1ccc(S(=O)(=O)N2CCCCC2)cc1	inconclusive: 25.1 µM [activator, single point]
O=C(COc1ccccc1Br)c1ccc(O)cc1O	inconclusive: 15.8 µM [activator, partial curve]

SMILES	Potency
O=C(Nc1ccc(-c2nc3ccccc3s2)cc1)c1cc(-n2cnnc2)ccc1Cl	inactive
O=C(COC(=O)C1(c2ccccc2F)CCCC1)NCc1ccc2c(c1)OCO2	inconclusive: 22.4 µM [activator, single point]
COc1ccc(S(=O)(=O)N(C(=O)C(C)C)c2ccc3oc(=O)sc3c2)cc1	inconclusive: 11.2 µM [activator, partial curve]
N#Cc1cn(Cc2cccc(Cl)c2)c2ccccc12	inconclusive: 11.2 µM [activator, partial curve]
CCC1=C(OC(=O)N(CC)CC)N2C(=O)OC(=NCC(=O)OC)[C@]2(C)[C@H]2C1=CC[C@H]1C(=O)NC(=O)[C@H]12	inconclusive: 22.4 µM [activator, partial curve]
CN(C)c1ccc(CN(CC2CCCO2)C(=O)c2cccs2)cc1 (configuration not stated)	inconclusive: 35.5 µM [activator, partial curve, poor fit]
COc1ccc(S(=O)(=O)c2c(N)n(Cc3ccco3)c3nc4ccccc4nc23)cc1	inactive
O=C(Nc1nc(-c2ccccc2)cs1)C1CCCCN1S(=O)(=O)c1ccc(Cl)cc1 (configuration not stated)	active: 17.8 µM
CCCCOc1ccc2c(C)cc(=O)oc2c1OCCCC	inconclusive: 5.62 µM [activator, single point]
CCOc1cc(-c2c(C)c(CC)nc(N)c2C#N)ccc1O	inconclusive: 12.6 µM [activator, partial curve]
N#C/C(=C\c1ccc(O)c(O)c1)C(=O)NCCCc1ccccc1	inconclusive: 16.4 µM [activator, single point]
CC1=C(C(=O)OC(C)C)C(c2ccccc2)NC(=S)N1C (configuration not stated)	inactive
O=C(/C=C/c1ccc(Cl)c(Cl)c1)NCc1ccco1	inactive
Cc1cc(C)c(C)c(S(=O)(=O)N2CCC(C(=O)N3CC(C)CC(C)C3)CC2)c1C (configuration not stated)	inconclusive: 15.8 µM [activator, single point]
Cc1ccc(NC2=C(N3CCOCC3)C(=O)c3ccccc3C2=O)cc1	inactive
COc1ccccc1Nc1nc(N)nc(CSC(=S)N2CC(C)CC(C)C2)n1 (configuration not stated)	inconclusive: 35.5 µM [activator, single point]
C/C(NC(=O)c1cccs1)=C1\C(=O)C[C@@H]2[C@H]1C2(C)C	inconclusive: 17.8 µM [activator, single point]
CCCCCCCn1c2c(c(=N)c3c1CCC3)CCCC2	inactive
Cc1nc2cc(C(=O)OCC(=O)NC34CC5CC(CC(C5)C3)C4)ccc2n1-c1ccccc1	inconclusive: 25.1 µM [activator, single point]
O=[N+]([O-])c1cccc(C(=S)N2CCN(c3ccccc3)CC2)c1	inactive
CC1=CC2=NC(=O)/C(=C\c3cccn3CCOc3cc(C)cc(C)c3)C(=N)N2O1	active: 20 µM
CCC(C)Nc1nc2c(c(=O)n(C)c(=O)n2C)n1Cc1ccc(Cl)cc1 (configuration not stated)	inconclusive: 0.708 µM [activator, full curve, poor fit]
O=C(CSc1nc2ccc(Cl)cc2[nH]1)N1CCN(C(=O)c2ccco2)CC1	inactive

SMILES	Potency
N#Cc1nc(-c2cccs2)oc1NCc1ccc2c(c1)OCO2	inconclusive: 28.2 µM [activator, single point]
CC(=O)N1CCOc2ccc(S(=O)(=O)N3CCN(c4cc(C)ccc4C)CC3)cc21	inconclusive: 7.08 µM [activator, partial curve]
CCCCN(C)S(=O)(=O)c1cc(Br)cc2c1N(C(=O)C1CC1)CC2	inconclusive: 3.98 µM [activator, partial curve]
O=c1c2c([nH]c3ccc(Br)cc13)CCCC2	inconclusive: 12.6 µM [activator, partial curve]
COc1ccc2[nH]c(C)c(CCN(Cc3cccs3)C(=S)Nc3ccc(F)cc3)c2c1	inconclusive: 28.2 µM [activator, single point]
CSc1ccccc1OCc1cc(C(=O)N2CCc3sccc3C2)no1	inconclusive: 14.1 µM [activator, single point]
COc1ccc(S(=O)(=O)N(C)c2nc3ccccc3n3c(CC(C)C)nnc23)cc1	inconclusive: 2.24 µM [activator, full curve, poor fit]
Clc1ccc(OCCOCCOc2cccc3cccnc23)c(Br)c1	inconclusive: 35.5 µM [activator, single point]
COc1cccc(CNC(=O)CCN2C(=O)[C@@H]3Cc4ccccc4CN3C2=O)c1	inconclusive: 11.2 µM [activator, partial curve]
COc1cc(-c2c(C#N)c(N)nc3c2c(C)nn3-c2ccc(C)c(C)c2)cc(OC)c1OC	inconclusive: 10 µM [activator, partial curve]
COC(=O)[C@@]1(Cc2ccc(OC)cc2)[C@H]2c3cc(C(=O)N4CCCC4)n(Cc4ccc(C)o4)c3C[C@H]2CN1C(=O)c1ccccc1	inconclusive: 20 µM [activator, single point]
O=C(Nc1ccc(N2CCOCC2)c(Cl)c1)c1ccc2c(c1)OCCO2	inconclusive: 17.8 µM [activator, partial curve]
COc1ccc(C(=O)/C(C#N)=N/Nc2ccc([N+](=O)[O-])cc2)cc1	inconclusive: 2.24 µM [activator, full curve, poor fit]
COCCNC(=O)CN1C(=O)/C(=C/c2ccccc2)Oc2ccc(C(C)(C)C)cc21	active: 20 µM
O=C(Nc1ccc2c(c1)OCO2)c1ccc(NC2CC2)c([N+](=O)[O-])c1	inconclusive: 31.6 µM [activator, single point]
CCC1CCc2c(sc(NC(C)=O)c2C#N)C1 (configuration not stated)	inconclusive: 20 µM [activator, single point]
NC(=O)c1ccccc1NS(=O)(=O)c1ccccc1	inactive
Cc1ccc2nc(N/N=C/c3ccccc3F)nc(-c3ccccc3)c2c1	inconclusive: 31.6 µM [activator, single point]
CC(=O)N1N=C(c2ccccc2)CC1c1cn(Cc2ccccc2)c2ccccc12 (configuration not stated)	inconclusive: 10 µM [activator, partial curve]
O=C(CC1C(=O)NCCN1Cc1ccc(Cl)c(F)c1)NCCc1cccnc1 (configuration not stated)	inconclusive: 3.98 µM [activator, single point]
O=C(c1ccncc1)N1N=C(c2ccc(Br)cc2)CC1c1ccccc1O (configuration not stated)	inconclusive: 31.6 µM [activator, single point]
